Data taken from article PMC3103587.

What was measured:
[1] = molecular target: Mfn2-HR2 (HR2-containing C-terminal cytosolic domain); assay: two-hybrid; dilution series: Matchmaker Two-Hybrid System 3, yeast AH109; 1:5 serial dilutions spotted onto SD/-Leu/-Trp/-His, grown for four days
[2] = molecular target: C-terminal coiled coil domain of DLP1 (DLP1-CC); assay: as above
[3] = molecular target: Mfn2-HR2 (HR2-containing C-terminal cytosolic domain); assay: two-hybrid; semi-quantitative: Matchmaker Two-Hybrid System 3, yeast AH109; ratio of colony numbers on SD/-Leu/-Trp/-His and SD/-Leu/-Trp plates (HIS3 activity)
[4] = molecular target: Mfn2-HR2 (HR2-containing C-terminal cytosolic domain); assay: two-hybrid; Matchmaker Two-Hybrid System 3, yeast AH109, growth in SD/-Leu/-Trp/-His; the legend does not tell whether semi-quantitative or dilution series (Fig. 2B, 3B, 8A, 8B, 8E)
[5] = molecular target: C-terminal coiled coil domain of DLP1 (DLP1-CC); assay: as above

Binder | binding [1] | binding [2] | binding [3] | binding [4] | binding [5]
Mfn2[360–448] (domain or fragment, UniProt O95140 360-448) QHTVRAKQIAEAVRLIMDSLHMAAREQQVYCEEMREERQDRLKFIDKQLELLAQDYKLRIKQITEEVERQVSTAMAEEIRRLSVLVDDY | binds | binds | binds | binds | binds
Mfn2[360–448]-L441P (domain or fragment, UniProt O95140 360-448) QHTVRAKQIAEAVRLIMDSLHMAAREQQVYCEEMREERQDRLKFIDKQLELLAQDYKLRIKQITEEVERQVSTAMAEEIRRPSVLVDDY |  |  |  | binds | no binding
Mfn2[360–448]-L408P (domain or fragment, UniProt O95140 360-448) QHTVRAKQIAEAVRLIMDSLHMAAREQQVYCEEMREERQDRLKFIDKQPELLAQDYKLRIKQITEEVERQVSTAMAEEIRRLSVLVDDY |  |  |  | no binding | binds
Mfn2[360–448]-L374P (domain or fragment, UniProt O95140 360-448) QHTVRAKQIAEAVRPIMDSLHMAAREQQVYCEEMREERQDRLKFIDKQLELLAQDYKLRIKQITEEVERQVSTAMAEEIRRLSVLVDDY |  |  |  | no binding | no binding

Results are given in words; binding and its absence hold for the method and conditions named. A result given as binding can be weak or reduced; the word gives no strength.
